This note sets out measurements from article PMC9916866 (International Journal of Molecular Sciences, 2023).

The assay deals with AT1-YFP (UniProt P30556). Description: FRET or BRET.

Results are given in words; binding and its absence hold for the method and conditions named. In cells and extracts the contact can be indirect. Some entries that bind do so weakly or less than the wild type.

“Rluc8-β-arrestin 2 (from UniProt P32121 1-409)”: the binding result is on record as “binds”.
